Test results: publication doi:10.1101/2021.06.04.447173

Key:
Assay in all cases: co-IP
[1] = target: MOG-7a(ΔGCFC) (C. elegans)
MOG-7a-V5 (C. elegans) = target: MOG-7a-V5 (C. elegans)
MOG-7b-V5 (C. elegans) = target: MOG-7b-V5 (C. elegans)

B1: FLAG-STIP-1 (protein, UniProt Q17784 1-830)
chain: MEDDDGRESFEINDMDLEYAMNPGGRRRFQNKDQATYGVFAPDSDDDDDEQGTSRGPYKKRSKISAPMSFVSGGIQQGNKIDKDDPASLNLNLGGEKKPKEDDEGSIQIDFDKRTKKAPKQNGAQVFAGMRSSANHGAADINQFGSWMRGDGNSNKIMKMMQAMGYKPGEGLGAQGQGIVEPVQAQLRKGRGAVGAYGKESTATGPKFGESAADAQKRMAQEGTSSRPTNDDQEKSGLKIKGSWKKSQTVKTKYRTIEDVMEEGMSASRPASHQQSQQYSNIKVIDMTGKQQKIYSGYDSFSMKTRSEYDTVDDEERTVFDVPELIHNLNLLVDLTEEGIRRSNQQLISLKDQTTALEYDLQQVQKSLGTEEQEAQHIKDVYELIDGFSSNRSPSMEECQELFRRLRSEFPHEYELYSLETVAIPTVLPLIQKYFVAWKPLEDKNYGCELISTWRDILDDSKNGRKMTFGHNKTKGDEIRAYDRIIWEGILPSIRRACLQWDPSTQMHEMIELVEQWIPLLSAWITENILEQLVVPKIAERVNQWDPMTDEIPIHEWLVPWLVLLGDRIQTVMPPIRQKLSKALKLWDPMDRSALETLRPWQNVWSAATFSAFIAQNIVPKLGVALDTMELNPTMNPEYPEWTACMEWLEFTHPDAIANIVTKYFFPRFYNCLCLWLDSPGVDYNEVKRWYGSWKARIPQVLVNYPTVNENLRRSMIAIGRSLQGEKVGGLQATPIAPMAPPPPMAPHFTQAAPVQKLSLKEIIEYTAGKNGFTYHPQKDRYKDGRQVFWFGALSIYLDSEMVYVMDPIEFVWRPSGLNELIQMAQGAQG
[1]
  binding: binds
MOG-7a-V5 (C. elegans)
  binding: binds
MOG-7b-V5 (C. elegans)
  binding: binds

B2: FLAG-PRP-19 (protein, UniProt Q10051 1-492)
chain: MSFVCGISGELTEDPVVSQVSGHIFDRRLIVKFIAENGTDPISHGELSEDQLVSLKSGGTGSAPRNVSGTSIPSLLKMLQDEWDTVMLNSFSLRQQLQIARQELSHSLYQHDAACRVISRLSKELTAAREALSTLKPHTSAKVDDDVSIDESEDQQGLSEAILAKLEEKSKSLTAERKQRGKNLPEGLAKTEELAELKQTASHTGIHSTGTPGITALDIKGNLSLTGGIDKTVVLYDYEKEQVMQTFKGHNKKINAVVLHPDNITAISASADSHIRVWSATDSSSKAIIDVHQAPVTDISLNASGDYILSASDDSYWAFSDIRSGKSLCKVSVEPGSQIAVHSIEFHPDGLIFGTGAADAVVKIWDLKNQTVAAAFPGHTAAVRSIAFSENGYYLATGSEDGEVKLWDLRKLKNLKTFANEEKQPINSLSFDMTGTFLGIGGQKVQVLHVKSWSEVVSLSDHSGPVTGVRFGENARSLVTCSLDKSLRVFSF
MOG-7a-V5 (C. elegans)
  binding: binds
MOG-7b-V5 (C. elegans)
  binding: binds

These are yes or no findings as the source states them, for the method shown. In cells and extracts the contact can be indirect. Binding can be weak; no strength is given. Tags and fused reporters may be left off the sequences shown.
